According to PubChem BioAssay AID2685 (National Center for Advancing Translational Sciences (NCATS), 2010):
Some of the results follow. The main result of the screen is listed elsewhere. These columns were measured beside it and carry no call. The list favours compounds with an active or inconclusive main result. Potencies come from curve fits of mixed quality, noted in brackets.

Test: qHTS Assay for Lipid Storage Modulators in Drosophila S3 Cells;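 on cell number change: cells counted by Cell Tracker Red CMTPX staining in the red channel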
Details: BODIPY lipid droplet fluorescence, 18-24 h; for cell number change: measured here: cell count max response, cells fed with added oleic acid
Procedure, shortened: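 Laser-scanning cytometry quantifies lipid droplet accumulation (500–530 nm total intensity; droplet/cell object ratio) in oleic acid-fed (400 uM added) Drosophila S3 cells treated with a concentration series. 20 uM Triacsin C defined 100% inhibition.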

[1] = measured here: cell number channel AC50, cells fed with added oleic acid
[2] = measured here: lipid fluorescence (Fed channel) AC50, cells fed with added oleic acid

Structure (SMILES)	AC50 [1]	AC50 [2]	cell number change [%]
Clc1ccc2[nH]c3c(NCCN4CCOCC4)ncnc3c2c1	1.84 µM [rising, partial curve]	0.731 µM [rising, single point]	
CCOC(=O)Cc1csc(NC(=O)C2CCCN(S(=O)(=O)c3cnc[nH]3)C2)n1 (stereo not drawn)	32.6 µM [rising, single point]		51.1
Cc1ccc(C(=O)NCCSCc2ccccc2)cc1[N+](=O)[O-]	16.4 µM [rising, partial curve, poor fit]	0.116 µM [rising, full curve, poor fit]	34.3
C/C(=N/N1CCN(c2ccccn2)CC1)c1cccc([N+](=O)[O-])c1			-1.41
O=C(NN=C1CCCCC1)c1ccccc1-n1cccc1		35.5 µM [rising, partial curve]	28.2
CC(C)(C)N(Cc1nc(-c2ccccc2)no1)C(=O)c1ccc2c(c1)OCO2		6.51 µM [rising, single point]	7.14
Cc1ccnc(NC(=O)Cn2cc([N+](=O)[O-])cn2)c1	0.116 µM [falling, full curve, poor fit]	0.206 µM [falling, full curve]	-26.4
Cc1ccc(/C(O)=C/c2nc3ccccc3oc2=O)cc1			-4.7
COc1ccc(C2N(c3cc(Cl)ccc3OC)C(=O)C3CCCN32)c(OC)c1 (stereo not drawn)			-18.5
Cc1ccc(-n2nnnc2SCC(=O)Nc2ccc(N3CCN(C)CC3)cc2)c(C)c1	29.1 µM [rising, single point]	18.4 µM [rising, partial curve]	32.7
O=C(Nc1cccc(-c2ccc(N3CCCCC3)nn2)c1)c1ccco1	0.411 µM [rising, full curve]	0.92 µM [rising, partial curve]	
CCOc1ccc(CCNC(=O)CN2CCN(Cc3ccccc3F)C2=O)cc1OCC		23.1 µM [falling, partial curve, poor fit]	-26.3
Cc1ccc(C)c(OCC(=O)NC2CCCCCC2)c1		29.1 µM [falling, single point]	-23.8
COC(=O)c1[nH]c2ccc(F)cc2c1NC(=O)CCN1CCN(Cc2ccc3c(c2)OCO3)CC1		0.366 µM [rising, partial curve]	-24.6
COc1ccc(-c2noc(CNC(=O)c3ccc4c(c3)OCO4)n2)cc1	0.00517 µM [rising, full curve, poor fit]	29.1 µM [rising, single point]	33.6
CNCCCNC(=O)c1ccc(/C=N/O)nc1	6.51 µM [falling, single point]		5.49
O=C(CCS(=O)(=O)c1cccc2nonc12)Nc1ccc(Br)cc1		0.58 µM [falling, single point]	25.2
CCn1c(=O)c(C)nn2c3ccccc3nc12	1.3 µM [rising, full curve]		
O=C(Nc1ccc(Cc2ccncc2)cc1)c1ccc(S(=O)(=O)N2CCCC2)cc1		2.06 µM [rising, partial curve]	-11.2
NC(=O)c1ccccc1OCCOc1ccc(Br)cc1		6.51 µM [rising, single point]	8.82
O=C(O)c1cccc(C(=O)O)c1Br			4.53

Structure (SMILES)	AC50 [1]	AC50 [2]	cell number change [%]
Cc1cccc(C(=O)OCC(=O)c2ccc3c(c2)OCO3)c1O	29.1 µM [falling, single point]	29.1 µM [falling, single point]	-38.1
CN(C(=O)CC1C(=O)NCCN1Cc1ccc(F)c(F)c1)C1CCCCC1 (stereo not drawn)	1.16 µM [rising, full curve, poor fit]		4.53
O=C(NC1CCCC1)C(c1ccncc1)N(Cc1ccccc1)C(=O)c1ccc(-c2ccccc2)[nH]1 (stereo not drawn)		9.2 µM [rising, partial curve]	-7.33
Cc1ccccc1NC1=C(Cl)C(=O)OC1OC(=O)c1ccco1 (stereo not drawn)			-4.63
Clc1ccc(-c2nc3ccccc3n2OCc2ccccc2)cc1	29.1 µM [falling, single point]	5.8 µM [falling, full curve]	-35.6
CCOC(=O)N1CCN(S(=O)(=O)c2ccc(OCC)c(C)c2)CC1		0.58 µM [rising, single point]	
O=C(CNC(=O)OCc1ccccc1)NC1CCCCCCC1		5.17 µM [rising, single point]	-4.24
Cc1cccc(C)c1NC(=O)CNC(=O)c1ccc(COc2ccccc2)cc1	32.6 µM [falling, partial curve, poor fit]	0.231 µM [falling, full curve]	-47.4
CSc1ccccc1NC(=O)CN(C)Cc1cccc(Cl)c1	29.1 µM [rising, single point]	29.1 µM [rising, partial curve, poor fit]	52.6
CN(C)C(CNC(=O)CCc1nc2ccccc2s1)c1ccccc1 (stereo not drawn)			20.2
CCCCNS(=O)(=O)c1ccc2nc(SCC(N)=O)[nH]c2c1			-13.9
O=C1Nc2ccccc2C12OCCO2		0.291 µM [falling, full curve, poor fit]	1.57
COc1ccccc1N1CCN(C(=O)CSc2ccc3c(C)cc(C)nc3n2)CC1		5.8 µM [rising, partial curve, poor fit]	3.22
COc1ccccc1N1CCN(CC(=O)N2N=CCC2c2ccccc2)CC1 (stereo not drawn)	2.91 µM [rising, single point]	29.1 µM [falling, single point]	
COCC(=O)N1CCC(Oc2ccc(C(=O)NCc3cc(C(C)C)no3)cc2)CC1		0.366 µM [falling, partial curve, poor fit]	-16.1
CSc1nc2nc3c(c(=O)n2[nH]1)CN(Cc1ccccc1)CC3		9.2 µM [falling, partial curve]	-27.9
Cc1ccc(C(C)NC(=O)c2ccc3c(c2)OCCO3)cc1C (stereo not drawn)			1.17
CCN(CC)C(=O)CSc1nnc(-c2cccnc2)n1CCc1ccccc1	0.058 µM [falling, full curve, poor fit]		-32
CC12CCC(C(=O)NNC(=O)c3ccccc3)(OC1=O)C2(C)C (stereo not drawn)			-10
CC(C)(C)OC(=O)N1CCC(CNC(=O)c2ccc(F)cc2)CC1	18.4 µM [falling, single point]	23.1 µM [falling, partial curve]	-47.7
Cn1cccc1C(=O)Nc1nc(-c2ccccn2)cs1			3.22

Record cards, as listed above.
`CC(C)(C)OC(=O)N1CCC(CNC(=O)c2ccc(F)cc2)CC1` is entered as AC50 [1]: 18.4 µM [falling, single point]; AC50 [2]: 23.1 µM [falling, partial curve]; cell number change [%]: -47.7
`Cc1ccc(C(C)NC(=O)c2ccc3c(c2)OCCO3)cc1C` (stereo not drawn) is entered as cell number change [%]: 1.17

Later entries

Structure (SMILES)	AC50 [1]	AC50 [2]	cell number change [%]
Cc1ccc(-c2nnc(SCC(=O)Nc3ccc(S(=O)(=O)N4CCCCCC4)cc3)o2)cc1			-14
O=C(N/N=C/c1ccccc1)C(=O)N/N=C/c1ccccc1		5.17 µM [rising, full curve]	18.5
Cn1c(=N)c(S(=O)(=O)c2ccccc2)cc2c(=O)n3ccccc3nc21	0.366 µM [rising, full curve]	0.259 µM [rising, full curve, poor fit]	
Cc1nc2c(ccc3nc(NC(=O)C(c4ccccc4)c4ccccc4)sc32)s1	18.4 µM [falling, partial curve]	18.4 µM [falling, single point]	-82.8
COc1cc(/C=C/C(=O)OCC(=O)NC(=O)NC(C)(C)C)cc(OC)c1OC	0.0206 µM [falling, full curve, poor fit]	0.103 µM [falling, full curve, poor fit]	-24.7
COc1cccc(Nc2nc(-c3sc(NC(=O)CC(C)C)nc3C)cs2)c1	7.31 µM [falling, full curve, poor fit]	7.31 µM [falling, full curve, poor fit]	-35.4
CCCC(=O)Nc1nn(CC)c2nc3ccc(C)cc3cc12		1.64 µM [rising, full curve, poor fit]	17.6
CC1CC(c2ccccc2)n2nc(NC(=O)c3ccco3)nc2N1 (stereo not drawn)		20.6 µM [falling, partial curve]	-0.144
COc1ccc(N2C(=O)C3C(C2=O)C(C(=O)c2ccccc2)N2CCCC32)cc1 (stereo not drawn)			5.66
N#Cc1ccc(-c2ccc(OCC3CNC(=O)O3)cc2)cc1 (stereo not drawn)	29.1 µM [falling, single point]		-45.3
NS(=O)(=O)c1ccc(Oc2ccc(S(N)(=O)=O)cc2)cc1			21.3
O=C(NCc1ccco1)/C(=C/c1ccc(Br)cc1)NC(=O)c1ccco1			-11
COc1ccc(C(=O)CSc2cc(C)[nH]c(=O)n2)cc1		29.1 µM [rising, single point]	-6.1
Nc1ccccc1NC(=O)c1ccccc1		1.64 µM [falling, partial curve]	-0.556
COc1ccc(CNC(=O)C2CC(C)=C(C)CC2C(=O)O)cc1OC (stereo not drawn)		29.1 µM [rising, single point]	2.75
COC(=O)c1sccc1-c1ccc(C(=O)Nc2ccccc2)o1		16.4 µM [falling, single point]	6.32
Cc1ccc2nc(Cn3cc(C(F)(F)F)cc(Cl)c3=O)cc(=O)n2c1		29.1 µM [rising, single point]	28.2
COc1ccc(S(=O)(=O)N2CCC(C(=O)NCc3cccnc3)CC2)cc1C	0.82 µM [rising, full curve, poor fit]	35.5 µM [falling, single point]	22.4
COc1cccc(CNCCN2CCOCC2)c1OC			0.879

Reformatted: two of the compounds above
Structure (SMILES) | AC50 [1] | AC50 [2] | cell number change [%]
Cc1ccc(-c2nnc(SCC(=O)Nc3ccc(S(=O)(=O)N4CCCCCC4)cc3)o2)cc1 |  |  | -14
COC(=O)c1sccc1-c1ccc(C(=O)Nc2ccccc2)o1 |  | 16.4 µM [falling, single point] | 6.32
